Reference: publication PMC7082061 (PLoS Pathogens, 2020)
Results are given in words; binding and its absence hold for the method and conditions named.

Key:
[1] = biological target: MOKV G_(1-436)* (soluble Mokola virus glycoprotein G ectodomain, fusion loops replaced by hydrophilic sequences) (Mokola virus) (UniProt P0C572); test: SEC-MALS; pH 8; both purified
[2] = biological target: MOKV G_(1-436)* (soluble Mokola virus glycoprotein G ectodomain, fusion loops replaced by hydrophilic sequences) (Mokola virus) (UniProt P0C572); test: negative staining electron microscopy; both purified

**Q.** With “MOKV G_(1-436)* (soluble Mokola virus glycoprotein G ectodomain, fusion loops replaced by hydrophilic sequences) (from UniProt P0C572 20-455) (domain or fragment)” as the substance, how does the binding [1] read?
**A.** The binding was “no binding”.

**Q.** And the binding [2]?
**A.** The binding was “no binding”.
